Results are given in words; binding and its absence hold for the method and conditions named. Some entries that bind do so weakly or less than the wild type.
B1: apo–MPND (residues 2–160) (domain or fragment, UniProt Q3TV65 2-160)
chain: AAPESLSPGATAEEAPEEDEDDAEAEDPERGTGSGGRSGSLGGSGGGTAGPGMALGGALTRRAVTLRVLLKDELLEPGEGVLSIYYLGRKFTGDLQLDGRIVWQETGQVFNSPSAWATHCKKLVNPAKKSGCGWASVKYKGQKLDKYKAAWLRRHQLHM
B2: apo–MPND(54–163) (domain or fragment, UniProt Q3TV65 54-163)
chain: MALGGALTRRAVTLRVLLKDELLEPGEGVLSIYYLGRKFTGDLQLDGRIVWQETGQVFNSPSAWATHCKKLVNPAKKSGCGWASVKYKGQKLDKYKAAWLRRHQLHMPVA

Assays:
[1] = biological target: apo–MPND (residues 2–160) (Mus musculus) (UniProt Q3TV65); experiment: crystal structure; apo–MPND (residues 2–160), space group P212121, 2.06 Å; two protomers in the asymmetric unit; both purified
[2] = biological target: apo–MPND(54–163) (Mus musculus) (UniProt Q3TV65); experiment: SAXS; apo–MPND54–163 at a range of concentrations (1.25 mg/mL shown), 20 mM HEPES pH 7.2, 100 mM NaCl, 2 mM β-mercaptoethanol; FoXS profiles and minimal ensemble search of monomer and dimers; both purified

| Binder | binding [1] | binding [2] |
| --- | --- | --- |
| B1 | binds weakly | – |
| B2 | – | binds weakly |

Source: publication PMC9963953, “Structures of MPND Reveal the Molecular Recognition of Nucleosomes”
